From the supplement of paper PMC3334620
Whole data set: some 33,000 sequences, median “E-score (-0.5 to 0.5)” near -0.015, cut for the highest 2% near 0.3. The list shows a part of the results.

biological target: T1, Abf1 (UniProt P14164); test: PBM E-score (8-mer binding enrichment) (E-score (-0.5 to 0.5)); higher = stronger / more preferred TF binding; details: protein concentration: 200 nM; construct: GST-full length
T1 sequence: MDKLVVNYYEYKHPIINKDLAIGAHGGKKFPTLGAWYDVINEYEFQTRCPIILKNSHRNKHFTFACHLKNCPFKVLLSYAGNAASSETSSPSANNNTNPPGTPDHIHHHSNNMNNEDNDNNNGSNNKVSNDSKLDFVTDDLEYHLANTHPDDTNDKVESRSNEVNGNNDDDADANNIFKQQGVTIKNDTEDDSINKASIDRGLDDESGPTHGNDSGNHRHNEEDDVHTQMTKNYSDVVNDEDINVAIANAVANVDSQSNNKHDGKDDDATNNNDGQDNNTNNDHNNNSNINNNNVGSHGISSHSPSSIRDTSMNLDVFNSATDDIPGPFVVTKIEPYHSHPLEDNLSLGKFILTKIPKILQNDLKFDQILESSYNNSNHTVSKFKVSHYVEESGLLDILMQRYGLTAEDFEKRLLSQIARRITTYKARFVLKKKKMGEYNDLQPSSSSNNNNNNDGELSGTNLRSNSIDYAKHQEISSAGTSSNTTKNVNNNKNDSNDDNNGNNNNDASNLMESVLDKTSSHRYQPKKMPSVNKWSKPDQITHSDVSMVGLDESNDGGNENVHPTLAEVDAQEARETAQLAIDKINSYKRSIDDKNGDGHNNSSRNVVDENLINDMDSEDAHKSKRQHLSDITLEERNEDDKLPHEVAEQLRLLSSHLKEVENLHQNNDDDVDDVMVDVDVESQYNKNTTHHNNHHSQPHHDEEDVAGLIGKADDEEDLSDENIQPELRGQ
In short: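 For each ungapped eight-base word taken together with its reverse complement, the Universal PBM Analysis Suite assigned an E-score. Binding data came from GST-tagged yeast transcription factors, applied at about 100-200 nM, on universal all-10-mer Agilent arrays made double-stranded by primer extension. Fluorescent anti-GST marked bound protein, and scans were normalised with masliner.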

Sequence | PBM E-score
AACCATGA | 0.104
CAGGTTAC | 0.0521
ATCCAACG | 0.0491
AATGCATT | 0.131
ACACACTA | -0.0945
AAGGAAAC | -0.0411
ACCCAGTG | -0.077
GACGGGAC | -0.171
GAATCCAA | 0.0635
GCGTGACC | 0.108
GAATATTC | 0.0666
CACTAACG | 0.0881
CCTTCCTC | -0.283
GACCTGCC | -0.13
CGGTAAAA | -0.0512
CAACCGGA | 0.00066
CAATCTAG | -0.095
AAGCCCAA | -0.219
CACAGAGA | -0.0444
AACGTGGC | -0.133
AGTATTAC | 0.2
ACTCGGGA | -0.0472
CGATCCGC | -0.155
AGAAATGG | -0.0914
ATGATGTC | 0.274

Copied from the results shown for reference:
Sequence | PBM E-score
GACCTGCC | -0.13
CGGTAAAA | -0.0512
CAACCGGA | 0.00066
CAATCTAG | -0.095
AAGCCCAA | -0.219
CACAGAGA | -0.0444

Further results

Sequence | PBM E-score
ACTGAAAT | -0.0641
CCCTCAGG | -0.165
AGTTACTG | -0.176
CAGGAGTC | -0.0846
CACAAGGC | -0.125
CCTGGCTA | -0.122
TGAGCTCA | -0.235
AGACTGGA | -0.122
AATGTCCG | 0.141
CATCAACA | 0.0969
CACATGTG | -0.128
ATGCGTGC | 0.0427
CTGTCACA | 0.138
AAAAATTA | 0.159
GAAAGCCA | -0.149
ATGAAGAC | 0.119
AACTTTAA | 0.166
TAGCTGGA | -0.206
AAGGATCA | -0.0554
GAATGTCC | -0.0713
ATAAGGCA | 0.14
GAGCGTGA | 0.138
CTCGTGGA | 0.188
GGGAGCTA | -0.164
CGTACGCC | 0.155

Sequence | PBM E-score
ATGAGTTG | -0.0628
CAATCAAG | -0.157
CACAGTTA | 0.164
AAATCGCC | 0.0447
ATGTAGAA | -0.0981
CGAAAAGA | 0.0367
GTTGTAGA | 0.163
CGTTGCTC | -0.123
ATCCCGCG | 0.215
CGAATCGA | 0.126
ACTAGGCG | 0.00556
TGCAAACA | 0.0172
CGTACACA | 0.318
TGCGATAA | 0.212
ATGTCACC | 0.429
CGTGTCTC | 0.164
AAGCAGAT | -0.108
ACGATACC | 0.276
GTATGCAC | 0.236
CACTTTTC | 0.192
GATCGGCC | 0.0329
CCGCCGCG | -0.17
ATCCTTTG | -0.00116
ACCTTTTA | 0.0165
CCTGGATA | 0.0319

Sequence | PBM E-score
ATGCCCGG | -0.174
AAAATCCT | -0.132
CGTCAACG | 0.228
ACCAGCTC | -0.138
TCGGTAAA | 0.112
CCTGCCGC | -0.0716
GATTGTGC | -0.0524
ACATCGCG | 0.0131
TAAGTTAA | 0.0411
ACTGACGA | 0.305
AGATACTC | -0.0317
GAAAAATA | 0.157
GCTGCCAC | -0.0485
AAGGACAT | 0.0941
AGTCTCCG | -0.0466
GCAGTGTA | -0.0775
GAGTACTC | -0.117
ACAGGCCG | -0.00447
TGGTGGAA | -0.0333
AACACTCA | 0.125
AGGAGCCA | -0.234
GTAAAAGA | 0.18
TTCCTCAA | -0.177
ACAGCTGG | -0.122
CGAAGCAG | -0.15

Sequence | PBM E-score
AACCAGTG | -0.195
ACCAAAGT | 0.0181
GAACCTTC | -0.153
GAAAGCGC | -0.0208
CACTGCAG | 0.00434
CTAATTTA | 0.168
CCTAGACG | 0.213
ATGGCGTG | 0.0483
AGATTCGC | -0.00717
ATACCACG | 0.049
CACTTTAA | 0.0944
CGTGTACA | 0.261
GCCCCCCC | -0.447
AATTAGCT | 0.00544
GATATTCA | 0.177
CTGCGGAA | -0.207
AGCGCGAA | 0.0206
ACGGATAT | 0.228
CCAGGTCC | -0.162
TATTGACA | -0.0437
AGGGTTCG | -0.183
TCCTTGAA | 0.022
AACACCGT | 0.0172
GACCAGCA | -0.0777
ACAGCCCT | -0.12

Sequence | PBM E-score
CGACATCG | 0.301
GTTATCTA | 0.0953
CTCTCACC | -0.0855
CAACGTAC | 0.267
AAGGCTTG | -0.136
CCCTCTTA | -0.00426
ACGCATGC | 0.0823
CCAGCGGA | -0.185
ACTAAATA | 0.268
CGATAGCG | 0.0434
AACATAGC | -0.162
GCATAGGC | -0.255
CACATCCA | 0.0403
AGGGGTAT | -0.179
CTATAATA | -0.0104
CAAGCATA | 0.0834
GTCGCGGA | 0.159
CTCGGAAA | -0.0502
CTTGCAGA | -0.0602
GGATGTTA | -0.0382
ACGCCGTA | 0.245
CCAAATAC | 0.00396
ACAACACT | 0.147
CATTTAGG | -0.0739
AGCTGGTG | -0.174

Sequence | PBM E-score
CCTTAAAG | -0.00146
CATGGCGG | -0.0941
ATACAGAA | 0.103
CCGTGGCG | 0.164
CGCGGCTC | -0.186
CCGTTCGA | 0.209
CTGCAGAA | 0.0288
GATTATGA | 0.156
CAAGTTCA | -0.117
GCTTCGGA | 0.0157
AACCACGA | 0.0664
CAGATGCA | -0.256
AGAAACAA | 0.0151
CTTGCAAA | 0.115
GAATTGTA | 0.114
CATAACCC | -0.0577
ACCGGTTA | -0.0599
CCCGCCGA | -0.121
ACATTAAG | 0.12
ATAATCGC | 0.107
GGAGGCTA | -0.164
CCCAAGGC | -0.264
GTTGGGTA | -0.103
CCAAAAAG | -0.0139
GTGTTATA | 0.174

Sequence | PBM E-score
AATTTTAC | 0.127
ACCACGGG | -0.0851
GCGAGCGA | 0.143
ACCCTCAG | 0.0149
AATGTGGC | -0.038
AAGATACT | 0.068
ATCGCATG | 0.0504
ATAATGTG | 0.08
AATAGATT | 0.0836
CACCCTAG | 0.0352
CGATTAAG | 0.166
ACGACAGC | 0.24
CGTATAAG | 0.349
ATCTGACG | 0.091
GAAAACAC | 0.142
AGTTAATC | 0.161
AGTCAACG | -0.149
ATGGAACG | 0.051
CTTAGTAC | 0.128
AGAGGTGA | 0.153
ATCCAGAC | -0.194
GCACCAAA | 0.0446
ACAGTTAA | -0.0458
ACGCCCTA | 0.0717
AGCCGTGA | 0.292

Sequence | PBM E-score
AGTTGCGG | -0.147
ATTAGGAC | 0.0986
TCTTACAA | 0.00801
GTTAATCA | 0.235
ACGGGAGG | -0.0941
CAACGAAA | 0.23
CGGCCCTA | -0.137
GTAAACTA | 0.16
GCCGCTCA | -0.154
GCACCAGC | -0.35
CCAAGTTC | -0.266
GTGTTCCA | -0.00174
AACACTTC | 0.0653
GCCCGGGA | -0.176
CCCCGCGC | -0.205
CTATGGGC | -0.0463
ATCGGCAC | 0.0131
ACCACCCT | -0.149
AAATGGAG | 0.0525
